Experimental data as given in PubChem BioAssay AID248 (DTP/NCI, 2004).
The list does not hold the whole screen: it is rich in T/C values a quarter to a half above the control, in often repeated tests (any T/C) and in doses without a T/C. Further doses and runs are listed elsewhere. T/C gives the treated animals as a percentage of the vehicle group. Some entries give survivors of the animals treated and no T/C: the source holds a T/C of zero for them, seemingly a mark for toxic or unscored doses. Some survivor counts are full or nearly so, which does not show that the dose was tolerated: the source hardly ever lists a survival T/C far under the control, and the zero likely stands for such cases as well. Survivors were counted at the toxicity check, usually on the fifth day, unless a day is given; later deaths do not show. Schedules are NCI's codes, taken here to give the interval after Q, in days (D) or hours (H), and the number of doses after X. Some doses were run more than once; their values stand side by side, smallest first. For survival time, the PubChem record calls one and a half times the control and up active, and a quarter to a half above the control has no call in these data; cut-offs in other NCI protocols can differ. Additions like (4×) stand for listed records that agree. Some T/C values are followed by the survivors on the day toxicity was checked, most often the fifth; where none is given, no animal had died by that day.

Test system: L1210 leukemia ip in BDF1 mice, survival T/C
Assay: NCI In Vivo Anticancer Drug Screen. Data for tumor model L1210 Leukemia (intraperitoneal) in B6D2F1 (BDF1) mice
Conditions: T/C endpoint: mean survival time, higher T/C = longer survival
[1] = dose: 25.0 mg/kg/injection, schedule: Q01DX009 (ip), vehicle: saline
[2] = dose: 400.0 mg/kg/injection, schedule: Q04DX003 (ip), vehicle: saline
[3] = dose: 400.0 mg/kg/injection, schedule: Q04DX002 (ip), vehicle: saline with Tween-80
[4] = dose: 200.0 mg/kg/injection, schedule: Q01DX009 (ip), vehicle: saline with Tween-80

Structure (SMILES): O=[N+]([O-])c1cc([N+](=O)[O-])c(Br)cc1Cl
- survivor count (dose: 40.0 mg/kg/injection, schedule: Q04DX003 (ip), vehicle: Klucel (hydroxypropylcellulose) (HPC)): 0 of 6
- survivor count (dose: 75.0 mg/kg/injection, schedule: Q04DX003 (ip), vehicle: Klucel (hydroxypropylcellulose) (HPC)): 6 of 6
- survivor count (dose: 150.0 mg/kg/injection, schedule: Q04DX003 (ip), vehicle: Klucel (hydroxypropylcellulose) (HPC)): 6 of 6
- survivor count (dose: 300.0 mg/kg/injection, schedule: Q04DX003 (ip), vehicle: Klucel (hydroxypropylcellulose) (HPC)): 6 of 6

Structure (SMILES): NC1(CO)COC(c2ccccc2)OC1 (centres undefined)
- T/C [1]: 125 % of control [5 of 6 alive]
- survivor count (dose: 200.0 mg/kg/injection, schedule: Q01DX009 (ip), vehicle: saline sonified): 2 of 6
- survivor count (dose: 200.0 mg/kg/injection, schedule: Q04DX003 (ip), vehicle: saline): 2 of 6
- survivor count (dose: 400.0 mg/kg/injection, schedule: Q01DX009 (ip), vehicle: saline sonified): 0 of 6
- survivor count [2]: 1 of 6

Structure (SMILES): CC1CN1C(=O)c1cc(C(=O)N2CC2C)cc(C(=O)N2CC2C)c1 (centres undefined)
- survivor count (dose: 120.0 mg/kg/injection, schedule: Q01DX001 (ip), vehicle: saline): 3 of 6

Structure (SMILES): NC(=O)c1ccc[n+](Cc2c(Cl)cccc2Cl)c1
- survivor count (dose: 12.5 mg/kg/injection, schedule: Q01DX009 (ip), vehicle: saline): 3 of 6
- survivor count [1]: 0 of 6
- survivor count (dose: 50.0 mg/kg/injection, schedule: Q01DX009 (ip), vehicle: saline): 0 of 6

Structure (SMILES): N#CC(C#N)=Cc1ccc([N+](=O)[O-])o1
- survivor count (dose: 12.5 mg/kg/injection, schedule: Q01DX009 (ip), vehicle: Klucel (hydroxypropylcellulose) (HPC)): 3 of 6
- survivor count (dose: 100.0 mg/kg/injection, schedule: Q04DX003 (ip), vehicle: Klucel (hydroxypropylcellulose) (HPC)): 0 of 6
- survivor count (dose: 200.0 mg/kg/injection, schedule: Q04DX003 (ip), vehicle: Klucel (hydroxypropylcellulose) (HPC)): 1 of 6
- survivor count (dose: 400.0 mg/kg/injection, schedule: Q04DX003 (ip), vehicle: Klucel (hydroxypropylcellulose) (HPC)): 0 of 6

Structure (SMILES): CC(=O)[O][Hg][c]1c(C)c(C)[c]([Hg][O]C(C)=O)c(C)c1C
- survivor count (dose: 100.0 mg/kg/injection, schedule: Q04DX002 (ip), vehicle: saline with Tween-80): 1 of 3
- survivor count (dose: 200.0 mg/kg/injection, schedule: Q04DX002 (ip), vehicle: saline with Tween-80): 0 of 3
- survivor count [3]: 0 of 3

Structure (SMILES): Cc1c(O)c2ccc3ccccc3c2oc1=O
- survivor count [2]: 1 of 3

Structure (SMILES): O=C(CBr)Nc1ccc(S(=O)(=O)F)cc1
- survivor count (dose: 37.5 mg/kg/injection, schedule: Q04DX003 (ip), vehicle: carboxymethylcellulose (CMC)): 2 of 6
- survivor count (dose: 75.0 mg/kg/injection, schedule: Q04DX003 (ip), vehicle: carboxymethylcellulose (CMC)): 0 of 6
- survivor count (dose: 150.0 mg/kg/injection, schedule: Q01DX001 (ip), vehicle: carboxymethylcellulose (CMC)): 0 of 6
- survivor count (dose: 300.0 mg/kg/injection, schedule: Q01DX001 (ip), vehicle: carboxymethylcellulose (CMC)): 0 of 6

Structure (SMILES): CC(=O)N(NC(=O)c1ccccn1)C(C)=O
- survivor count (dose: 400.0 mg/kg/injection, schedule: Q01DX001 (ip), vehicle: water): 0 of 6

Structure (SMILES): CCOC(=O)c1ccc(C(=O)OCC)nc1
- survivor count [4]: 6 of 6
- survivor count (dose: 400.0 mg/kg/injection, schedule: Q01DX009 (ip), vehicle: saline with Tween-80): 6 of 6

Structure (SMILES): CSc1ccc(NC(=O)Nc2ccc(C(=O)NCC(=O)O)cc2)cc1
- T/C (dose: 50.0 mg/kg/injection, schedule: Q01DX009 (ip), vehicle: saline with Tween-80): 97, 98, 105 % of control (2×)
- survivor count (dose: 100.0 mg/kg/injection, schedule: Q01DX009 (ip), vehicle: saline with Tween-80): 0 of 3, 1 of 3, 3 of 6, 6 of 6
- survivor count (dose: 200.0 mg/kg/injection, schedule: Q01DX001 (ip), vehicle: saline with Tween-80): 1 of 6
- survivor count [4]: 0 of 3 and 0 of 6
- survivor count (dose: 400.0 mg/kg/injection, schedule: Q01DX001 (ip), vehicle: saline with Tween-80): 1 of 6
- survivor count [3]: 0 of 3 and 1 of 6
